According to paper PMC12130529:
No constants are given. Whether binding was seen depends on the method and setting. In cells and extracts the contact can be indirect. Some entries that bind do so weakly or less than the wild type.

Protein sequences, listed by entry. Tags and fused reporters are not part of them. Lines headed by an entry give the natural chain unless they say otherwise; changes in a name come on top.
UniProt O00560: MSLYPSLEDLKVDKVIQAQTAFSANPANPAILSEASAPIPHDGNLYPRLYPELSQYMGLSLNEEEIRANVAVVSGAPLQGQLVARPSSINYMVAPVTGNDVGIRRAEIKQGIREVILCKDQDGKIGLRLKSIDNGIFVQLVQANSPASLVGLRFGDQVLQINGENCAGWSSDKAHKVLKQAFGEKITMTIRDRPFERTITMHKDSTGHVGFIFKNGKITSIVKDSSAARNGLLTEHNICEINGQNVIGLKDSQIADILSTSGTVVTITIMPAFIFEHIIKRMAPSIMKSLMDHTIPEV
UniProt Q8NEZ5: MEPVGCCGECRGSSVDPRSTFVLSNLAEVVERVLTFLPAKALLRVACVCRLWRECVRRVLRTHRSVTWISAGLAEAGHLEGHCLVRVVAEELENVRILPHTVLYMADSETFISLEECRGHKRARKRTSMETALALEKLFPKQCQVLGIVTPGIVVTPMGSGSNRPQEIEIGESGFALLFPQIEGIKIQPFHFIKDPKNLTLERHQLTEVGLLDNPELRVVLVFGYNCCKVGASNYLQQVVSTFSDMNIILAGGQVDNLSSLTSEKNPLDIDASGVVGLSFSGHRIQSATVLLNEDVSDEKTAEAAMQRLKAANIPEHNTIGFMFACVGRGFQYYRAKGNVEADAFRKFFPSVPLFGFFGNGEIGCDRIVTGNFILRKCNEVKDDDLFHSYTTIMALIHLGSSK

Legend:
[1] = target: His-SKP1 (not stated (human or mouse cDNA constructs purchased)) (UniProt P63208); assay: pull-down; His pull-down of His-SKP1 with Dynabeads His-Tag Isolation and Pulldown from lysates of transfected HEK293 cells, with control vector or Myc-SDCBP; Western blot (Fig. EV5E, 4D)
[2] = target: Myc-SDCBP (not stated (human or mouse cDNA constructs purchased)) (UniProt O00560); assay: co-IP; HEK293 cells transfected with the indicated plasmids; lysis in ice-cold RIPA buffer, antibody overnight at 4 °C, protein A/G PLUS-agarose or Dynabeads protein G, four washes with RIPA, Western blot (Fig. EV4J, EV5A,B, 4C)

binding [1] | binding [2] | Substance
binds |  | Myc-SDCBP (from UniProt O00560 1-298)
 | no binding | HA-FBXO22_Δ2 (from UniProt Q8NEZ5 1-285) (domain or fragment)
 | no binding | HA-FBXO22_Δ1 (from UniProt Q8NEZ5 62-403) (domain or fragment)
